Experimental data taken from patent US20210308034A1, “PREBIOTIC COMPOSITIONS AND METHODS FOR MAINTAINING A HEALTHY SKIN MICROBIOTA” (KIMBERLY-CLARK WORLDWIDE, INC., priority 2018, published 2021).

Tested on: Pseudomonas aeruginosa (ATCC 9027)
Format: cell-based
Conditions: Pathogenic; carbon microarray plate, OD 600 nm, 36 hr, 33° C.; positive = more than 0.05 OD units above zero; blank cell = not utilized
Description: After creating desired ratios of various commensal skin bacteria in a healthy skin microbiome, 188 different carbohydrate sources were screened as the next step in determining potential prospects for skin microbiota balancing agents. The screening process was set up to determine which carbohydrate sources promoted commensal and/or pathogenic bacteria as well as to obtain individual and combinations of carbohydrate sources that could serve as microbiota balancing agents that can support or maintain the healthy proportions of commensal skin bacteria of Corynebacterium, Staphylococcus, and Micrococcus. The screening was conducted utilizing Biolog phenotype microarray plates (Hayward, Calif.). Table 1 provides a coded list of the commensal and pathogenic skin bacteria that the carbohydrates were screened against.
Table 2 provides the results of screening various carbohydrate sources against the commensal and pathogenic bacteria codes listed in Table 1. The Bacteria Codes B, D, E, I, and J are commensal bacteria and are shaded in Table 2 for references purposes. […]
A tenfold dilution in M9*1 media was performed using 1 mL of the washed bacterial culture. Of the tenfold dilution 200 μL was placed in an untreated 96-well plate (Falcon, Pasadena Tx.) for an initial optical density (OD) reading at a wavelength of 600 nm. […]

With `NCCC[C@H](N)C(=O)O` [L-Ornithine] the “Carbohydrate Screening Results, Bacteria Code F” value was “Y”.
